The results in this text go back to PMC8965321.

For at least one entry, the source does not settle the construct or the ends of the probe. Negatives hold for the conditions tested.

The data set concerns GP46F13 (Lactococcus lactis phage vB_Llc_bIBBF13 (F13)). Description: EMSA. Conditions: no ATP, 20 mM Tris-HCl pH 8, 50 mM NaCl, 1 mM DTT, 1 mM EDTA, 0.1 mg/ml BSA, 2.5% glycerol, 30 min at 30 C, 1 nM DNA, 7% native PAGE, 0.5x TBE, 4 C, recombinant protein, protein details: N-terminal 6xHis-SUMO, removed by SUMO protease. A general note: Mobility shift assays separate free from complexed probe on a gel.

Setting [1] is: complexes in wells, 0.1-0.75 uM protein, label: 5' Cy5, single-stranded DNA.

Turning to AAAAATTGAATACGCCTAAGGC [ss22], under setting [1], the binding result was “binds”. Turning to “CTCAATTCCTAAGACATCAGACAAGCCTTAGGCGTATTCAATTTT / TTTTTTTTTTTTTTTTTTTTTTTTTTTTTTTTTTTTAAGGCTTGTCTGATGTCTTAGGAATTGAG [30duplex_5'ext]”, the binding result (clear complexes, 0.1-0.75 uM protein, label: 5' Cy5 on strand 1) is “binds”.

As for “TCACACAGGGCTACCGCTTTGCCTAACTCATTACTCGCGCCTTATTCAGTACGGTTTTCATATACTCAATTCCTAAGACATCAGACAAGCCTTAGGCGTATTCAATTTTT [ss110]”, the binding result (clear retarded complexes, 0.1-0.75 uM protein, label: 5' Cy5, single-stranded DNA) is listed as “binds”. For the sequence “TCACACAGGGCTACCGCTTTGCCTAACTCATTACTCGCGCCTTATTCAGTACGGTTTTCATATACTCAATTCCTAAGACATCAGACAAGCCTTAGGCGTATTCAATTTTT (double strand) [ds110 (110ds)]”, the binding result (up to 0.75 uM protein, 0.1-0.75 uM …, label: 5' Cy5 on reverse strand, letters put together from the description) is reported as “no binding”.

For the sequence “TATTCAGTACGGTTTTCATATACTCAATTCCTAAGACATCAGACAAGCCTTAGGCGTATTCAATTTTT [ss68]”, the binding result under setting [1] is reported as “binds”. Same read-out and setting: the result for “CTCAATTCCTAAGACATCAGACAAGCCTTAGGCGTATTCAATTTT [ss45]” reads “binds”.
